The results in this text go back to patent US20250066463A1.

These are yes or no findings as the source states them, for the method shown. Some entries that bind do so weakly or less than the wild type. Tags and fused reporters may be left off the sequences shown.

For one experiment, the target named is T1, ANGPTL8-V5 (human) (UniProt Q6UXH0).
T1 sequence: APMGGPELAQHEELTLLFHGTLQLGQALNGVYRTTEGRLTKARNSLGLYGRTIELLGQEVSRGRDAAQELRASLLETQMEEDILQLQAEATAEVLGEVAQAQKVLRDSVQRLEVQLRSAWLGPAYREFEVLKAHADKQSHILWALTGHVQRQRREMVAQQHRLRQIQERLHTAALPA
Nature of the experiment: AlphaLISA on CHO-K1 cell media with ANGPTL3-myc and ANGPTL8-V5 (anti-V5 acceptor beads, biotinylated anti-myc antibody and streptavidin donor beads). Background: Bead proximity is the source of the signal in Alpha formats.

The target in experiment [1] is T2, ANGPTL3-myc (UniProt Q9Y5C1).
T2 sequence (looked up): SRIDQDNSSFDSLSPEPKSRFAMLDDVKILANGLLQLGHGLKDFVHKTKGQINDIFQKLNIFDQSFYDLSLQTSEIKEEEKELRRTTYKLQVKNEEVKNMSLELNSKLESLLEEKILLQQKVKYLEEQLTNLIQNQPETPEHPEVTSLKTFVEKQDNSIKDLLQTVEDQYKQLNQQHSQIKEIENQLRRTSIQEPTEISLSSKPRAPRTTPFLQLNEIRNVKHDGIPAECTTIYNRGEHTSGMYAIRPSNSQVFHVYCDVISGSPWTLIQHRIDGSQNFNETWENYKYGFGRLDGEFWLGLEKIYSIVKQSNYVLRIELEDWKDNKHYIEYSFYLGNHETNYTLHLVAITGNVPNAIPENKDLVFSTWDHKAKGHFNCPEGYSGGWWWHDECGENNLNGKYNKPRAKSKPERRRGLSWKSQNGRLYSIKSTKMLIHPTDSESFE
Nature of the experiment: summary of the AlphaLISA assay of Example 6.

Experiment [2] has as its target T2, ANGPTL3-myc. Nature of the experiment: AlphaLISA proximity assay, anti-V5 acceptor beads and biotinylated anti-myc with streptavidin donor beads.

B1: ANGPTL3-myc (ligand, UniProt Q9Y5C1 17-460, looked up, not shown: small tags and cut ends)
chain: SRIDQDNSSFDSLSPEPKSRFAMLDDVKILANGLLQLGHGLKDFVHKTKGQINDIFQKLNIFDQSFYDLSLQTSEIKEEEKELRRTTYKLQVKNEEVKNMSLELNSKLESLLEEKILLQQKVKYLEEQLTNLIQNQPETPEHPEVTSLKTFVEKQDNSIKDLLQTVEDQYKQLNQQHSQIKEIENQLRRTSIQEPTEISLSSKPRAPRTTPFLQLNEIRNVKHDGIPAECTTIYNRGEHTSGMYAIRPSNSQVFHVYCDVISGSPWTLIQHRIDGSQNFNETWENYKYGFGRLDGEFWLGLEKIYSIVKQSNYVLRIELEDWKDNKHYIEYSFYLGNHETNYTLHLVAITGNVPNAIPENKDLVFSTWDHKAKGHFNCPEGYSGGWWWHDECGENNLNGKYNKPRAKSKPERRRGLSWKSQNGRLYSIKSTKMLIHPTDSESFE
On to B1, for which the binding result with ANGPTL8-V5 (human) was “binds”.

B2: ANGPTL8-V5 (ligand, not shown: small tags and cut ends)
chain: APMGGPELAQHEELTLLFHGTLQLGQALNGVYRTTEGRLTKARNSLGLYGRTIELLGQEVSRGRDAAQELRASLLETQMEEDILQLQAEATAEVLGEVAQAQKVLRDSVQRLEVQLRSAWLGPAYREFEVLKAHADKQSHILWALTGHVQRQRREMVAQQHRLRQIQERLHTAALPA
Turning to B2, the binding result in the experiment with ANGPTL3-myc [1] and with ANGPTL3-myc [2] was “binds” each time.
